Measured values reported in doi:10.1101/2025.09.29.679124 (bioRxiv, 2025).
No constants are given. Whether binding was seen depends on the method and setting. Some binding calls cover weakened binding; strength is not graded here. Tags and fused reporters may be left off the sequences shown.

The chains behind the UniProt entries cited, without tags or fusion partners. Where a name states a change or a piece, a line headed by the entry shows the natural chain unless it says otherwise.
UniProt Q5VMP0: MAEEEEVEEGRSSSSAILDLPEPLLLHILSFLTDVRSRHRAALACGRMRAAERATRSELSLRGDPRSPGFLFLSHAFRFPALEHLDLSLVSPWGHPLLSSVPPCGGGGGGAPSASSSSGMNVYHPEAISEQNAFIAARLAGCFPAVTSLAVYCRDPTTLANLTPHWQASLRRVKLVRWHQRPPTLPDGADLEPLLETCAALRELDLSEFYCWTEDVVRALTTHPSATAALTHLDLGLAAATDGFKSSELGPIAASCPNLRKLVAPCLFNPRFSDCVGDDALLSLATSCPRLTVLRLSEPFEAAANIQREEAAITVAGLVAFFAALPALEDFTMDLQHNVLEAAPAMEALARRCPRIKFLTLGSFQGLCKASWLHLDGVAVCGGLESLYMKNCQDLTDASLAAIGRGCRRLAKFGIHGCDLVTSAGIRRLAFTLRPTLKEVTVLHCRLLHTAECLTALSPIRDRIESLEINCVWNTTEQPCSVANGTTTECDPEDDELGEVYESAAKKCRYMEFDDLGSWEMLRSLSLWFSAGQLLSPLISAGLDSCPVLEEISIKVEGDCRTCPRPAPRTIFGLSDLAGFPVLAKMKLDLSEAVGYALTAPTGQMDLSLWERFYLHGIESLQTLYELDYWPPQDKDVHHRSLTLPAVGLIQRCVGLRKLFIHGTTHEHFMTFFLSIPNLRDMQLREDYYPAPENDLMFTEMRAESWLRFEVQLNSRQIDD
UniProt Q39255: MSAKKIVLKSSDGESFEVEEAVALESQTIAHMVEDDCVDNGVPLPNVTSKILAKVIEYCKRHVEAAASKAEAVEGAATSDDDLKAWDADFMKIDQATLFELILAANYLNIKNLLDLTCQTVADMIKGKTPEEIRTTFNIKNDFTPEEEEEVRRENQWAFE

Columns and labels:
Assay in all cases: pull-down
[1] = target: T1, MBP-His-D53-D1M (182-510) (rice (Oryza sativa)) (UniProt Q2RBP2)
T1 sequence: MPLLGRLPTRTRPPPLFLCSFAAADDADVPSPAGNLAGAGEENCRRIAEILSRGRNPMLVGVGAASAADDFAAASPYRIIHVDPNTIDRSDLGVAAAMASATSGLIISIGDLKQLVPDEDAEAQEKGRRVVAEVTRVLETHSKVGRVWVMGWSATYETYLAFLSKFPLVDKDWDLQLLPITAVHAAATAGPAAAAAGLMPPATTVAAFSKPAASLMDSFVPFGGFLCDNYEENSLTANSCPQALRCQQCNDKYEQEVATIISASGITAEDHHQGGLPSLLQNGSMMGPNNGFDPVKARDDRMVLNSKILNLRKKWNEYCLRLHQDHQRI

[2] = target: MBP-tagged D3 (2-720) co-expressed with untagged ASK1 (rice (Oryza sativa) | Arabidopsis) (UniProt Q5VMP0+Q39255)
[3] = target: T2, MBP-His-D53-D2 (718-1131) (rice (Oryza sativa)) (UniProt Q2RBP2)
T2 sequence: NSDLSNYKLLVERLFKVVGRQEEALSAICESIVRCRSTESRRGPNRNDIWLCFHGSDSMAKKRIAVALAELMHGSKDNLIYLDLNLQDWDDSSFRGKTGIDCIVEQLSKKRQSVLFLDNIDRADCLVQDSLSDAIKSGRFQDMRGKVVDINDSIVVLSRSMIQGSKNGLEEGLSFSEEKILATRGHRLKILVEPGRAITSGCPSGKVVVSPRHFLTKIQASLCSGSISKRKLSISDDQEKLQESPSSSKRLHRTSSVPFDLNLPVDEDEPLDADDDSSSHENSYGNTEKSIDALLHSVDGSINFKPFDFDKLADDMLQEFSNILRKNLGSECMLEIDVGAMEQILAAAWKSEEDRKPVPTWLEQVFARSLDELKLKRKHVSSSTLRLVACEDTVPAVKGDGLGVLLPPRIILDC

Measured: binding

B1: Glutathione-S-transferase (GST)-tagged D14L (receptor, rice (Oryza sativa), UniProt Q10J20 1-271, looked up)
chain: MGIVEEAHNLRVVGEGKRGVIVLAHGFGTDQSVWKHLVPHLVADYRVVLFDTMGAGPTNPDYFDFSRYATLEGYALDLLAILQELRVASCIYVGHSVSAVIGAIASISRPDLFSKLVLLSASPRYLNDVDYYGGFEQEDLDELFEAMGSNYKAWCSGFAPLCVGGDMESVAVQEFSRTLFNIRPDIALSVAQTIFQSDVRSLLPLVTVPCHIVQSTKDLAVPVVVSEYLHKHLGGDSIVEVMPSEGHLPQLSSPDIVIPVLLRHIQHDIAV
binds weakly: all assays above
